Laboratory results: the supplement of paper PMC10849652
Some of the results follow.

Protein sequences, listed by entry. Tags and fused reporters are not part of them. Lines headed by an entry give the natural chain unless they say otherwise; changes in a name come on top.
UniProt Q14687: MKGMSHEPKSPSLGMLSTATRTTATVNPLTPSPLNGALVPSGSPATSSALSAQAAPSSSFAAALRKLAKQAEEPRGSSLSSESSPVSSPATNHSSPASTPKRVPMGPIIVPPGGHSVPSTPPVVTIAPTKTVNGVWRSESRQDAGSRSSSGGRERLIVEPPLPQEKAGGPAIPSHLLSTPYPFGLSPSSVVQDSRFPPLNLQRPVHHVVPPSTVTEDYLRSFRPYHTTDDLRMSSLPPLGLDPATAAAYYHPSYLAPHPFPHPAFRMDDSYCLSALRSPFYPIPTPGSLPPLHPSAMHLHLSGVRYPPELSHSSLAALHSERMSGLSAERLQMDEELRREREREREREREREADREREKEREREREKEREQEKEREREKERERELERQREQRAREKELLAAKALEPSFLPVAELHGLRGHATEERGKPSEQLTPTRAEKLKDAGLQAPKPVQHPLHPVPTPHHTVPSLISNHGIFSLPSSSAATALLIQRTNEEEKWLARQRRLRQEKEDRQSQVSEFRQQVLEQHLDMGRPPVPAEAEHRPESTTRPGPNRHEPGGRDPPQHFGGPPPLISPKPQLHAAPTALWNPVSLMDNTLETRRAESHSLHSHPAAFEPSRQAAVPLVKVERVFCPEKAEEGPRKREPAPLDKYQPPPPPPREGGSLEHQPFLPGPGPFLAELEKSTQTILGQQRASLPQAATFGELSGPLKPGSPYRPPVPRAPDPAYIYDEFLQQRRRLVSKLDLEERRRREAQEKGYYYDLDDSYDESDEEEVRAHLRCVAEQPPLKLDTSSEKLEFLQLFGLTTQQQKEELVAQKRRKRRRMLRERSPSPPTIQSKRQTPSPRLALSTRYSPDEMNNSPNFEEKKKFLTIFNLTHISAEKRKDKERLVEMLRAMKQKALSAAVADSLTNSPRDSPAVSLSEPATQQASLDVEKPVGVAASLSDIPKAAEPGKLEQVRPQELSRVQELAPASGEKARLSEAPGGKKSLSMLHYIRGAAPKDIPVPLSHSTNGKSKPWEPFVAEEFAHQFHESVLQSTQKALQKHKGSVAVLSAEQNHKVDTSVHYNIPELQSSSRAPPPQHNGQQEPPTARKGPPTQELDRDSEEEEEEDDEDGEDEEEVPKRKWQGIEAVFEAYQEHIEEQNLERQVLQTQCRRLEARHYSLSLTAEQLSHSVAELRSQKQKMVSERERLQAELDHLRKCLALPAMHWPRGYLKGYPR
UniProt Q13227: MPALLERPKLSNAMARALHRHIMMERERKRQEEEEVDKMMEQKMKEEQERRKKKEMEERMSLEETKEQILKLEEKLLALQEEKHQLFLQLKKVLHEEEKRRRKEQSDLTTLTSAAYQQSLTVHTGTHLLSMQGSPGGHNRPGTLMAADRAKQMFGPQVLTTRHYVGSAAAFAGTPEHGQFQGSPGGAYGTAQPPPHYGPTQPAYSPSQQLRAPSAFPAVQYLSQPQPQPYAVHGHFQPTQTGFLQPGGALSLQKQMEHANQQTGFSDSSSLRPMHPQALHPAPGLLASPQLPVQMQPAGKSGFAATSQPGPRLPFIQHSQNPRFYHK
UniProt Q9BRR8: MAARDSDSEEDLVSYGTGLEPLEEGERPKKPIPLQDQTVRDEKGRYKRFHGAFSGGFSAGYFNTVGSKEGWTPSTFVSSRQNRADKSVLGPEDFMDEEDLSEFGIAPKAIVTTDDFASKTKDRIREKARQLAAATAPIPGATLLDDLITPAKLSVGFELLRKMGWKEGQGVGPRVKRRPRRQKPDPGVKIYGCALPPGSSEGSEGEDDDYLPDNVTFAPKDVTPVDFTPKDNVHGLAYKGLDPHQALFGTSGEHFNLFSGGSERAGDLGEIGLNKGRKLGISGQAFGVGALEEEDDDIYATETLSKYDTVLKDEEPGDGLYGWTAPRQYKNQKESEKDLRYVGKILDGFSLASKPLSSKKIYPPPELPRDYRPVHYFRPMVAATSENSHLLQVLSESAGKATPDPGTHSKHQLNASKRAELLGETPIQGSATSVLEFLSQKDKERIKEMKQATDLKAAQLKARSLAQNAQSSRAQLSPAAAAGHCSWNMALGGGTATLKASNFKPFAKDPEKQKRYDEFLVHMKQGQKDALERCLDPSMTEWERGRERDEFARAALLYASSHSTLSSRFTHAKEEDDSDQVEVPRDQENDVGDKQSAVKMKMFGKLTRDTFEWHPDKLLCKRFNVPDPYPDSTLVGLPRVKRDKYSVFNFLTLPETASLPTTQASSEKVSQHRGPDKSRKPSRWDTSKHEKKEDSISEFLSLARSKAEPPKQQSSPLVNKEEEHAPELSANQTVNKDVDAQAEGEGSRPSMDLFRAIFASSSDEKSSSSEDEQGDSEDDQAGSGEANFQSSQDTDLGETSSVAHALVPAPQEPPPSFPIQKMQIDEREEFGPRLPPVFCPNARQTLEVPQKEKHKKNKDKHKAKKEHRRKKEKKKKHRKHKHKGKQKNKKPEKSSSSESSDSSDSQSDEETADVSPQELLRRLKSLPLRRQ
UniProt Q9NWU2, whole entry, looked up: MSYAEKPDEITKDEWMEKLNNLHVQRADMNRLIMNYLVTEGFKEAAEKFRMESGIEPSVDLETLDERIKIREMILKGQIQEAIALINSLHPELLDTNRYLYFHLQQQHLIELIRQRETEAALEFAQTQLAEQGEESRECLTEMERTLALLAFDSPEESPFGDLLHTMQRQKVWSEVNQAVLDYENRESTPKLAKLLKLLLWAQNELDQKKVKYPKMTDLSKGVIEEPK
UniProt Q7Z2K8: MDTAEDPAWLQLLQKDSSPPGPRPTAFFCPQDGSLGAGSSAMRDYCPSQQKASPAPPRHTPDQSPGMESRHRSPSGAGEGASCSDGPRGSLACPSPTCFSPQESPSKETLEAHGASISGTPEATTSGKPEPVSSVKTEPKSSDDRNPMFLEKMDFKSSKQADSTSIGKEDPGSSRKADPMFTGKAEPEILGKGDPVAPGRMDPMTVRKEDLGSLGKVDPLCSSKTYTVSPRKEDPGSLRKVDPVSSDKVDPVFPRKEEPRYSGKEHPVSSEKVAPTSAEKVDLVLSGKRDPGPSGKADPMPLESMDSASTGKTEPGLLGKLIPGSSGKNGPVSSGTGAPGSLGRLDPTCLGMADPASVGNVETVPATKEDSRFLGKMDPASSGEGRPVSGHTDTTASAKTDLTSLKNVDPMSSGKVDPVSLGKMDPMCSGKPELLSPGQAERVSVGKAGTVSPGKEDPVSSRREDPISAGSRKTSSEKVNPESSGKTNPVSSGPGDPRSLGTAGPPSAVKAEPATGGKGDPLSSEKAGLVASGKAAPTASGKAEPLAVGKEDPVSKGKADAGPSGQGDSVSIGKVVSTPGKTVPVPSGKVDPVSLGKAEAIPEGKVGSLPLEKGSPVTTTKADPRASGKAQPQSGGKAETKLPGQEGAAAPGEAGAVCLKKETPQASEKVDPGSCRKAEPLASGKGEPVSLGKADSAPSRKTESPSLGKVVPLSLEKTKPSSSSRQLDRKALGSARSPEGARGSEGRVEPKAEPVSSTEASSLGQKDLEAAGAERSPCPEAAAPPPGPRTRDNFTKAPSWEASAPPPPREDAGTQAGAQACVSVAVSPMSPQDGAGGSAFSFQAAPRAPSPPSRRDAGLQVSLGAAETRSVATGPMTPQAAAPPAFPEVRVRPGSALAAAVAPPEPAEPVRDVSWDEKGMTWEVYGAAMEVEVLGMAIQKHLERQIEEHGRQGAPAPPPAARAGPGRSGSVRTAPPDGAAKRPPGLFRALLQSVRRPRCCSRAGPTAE
UniProt O75420: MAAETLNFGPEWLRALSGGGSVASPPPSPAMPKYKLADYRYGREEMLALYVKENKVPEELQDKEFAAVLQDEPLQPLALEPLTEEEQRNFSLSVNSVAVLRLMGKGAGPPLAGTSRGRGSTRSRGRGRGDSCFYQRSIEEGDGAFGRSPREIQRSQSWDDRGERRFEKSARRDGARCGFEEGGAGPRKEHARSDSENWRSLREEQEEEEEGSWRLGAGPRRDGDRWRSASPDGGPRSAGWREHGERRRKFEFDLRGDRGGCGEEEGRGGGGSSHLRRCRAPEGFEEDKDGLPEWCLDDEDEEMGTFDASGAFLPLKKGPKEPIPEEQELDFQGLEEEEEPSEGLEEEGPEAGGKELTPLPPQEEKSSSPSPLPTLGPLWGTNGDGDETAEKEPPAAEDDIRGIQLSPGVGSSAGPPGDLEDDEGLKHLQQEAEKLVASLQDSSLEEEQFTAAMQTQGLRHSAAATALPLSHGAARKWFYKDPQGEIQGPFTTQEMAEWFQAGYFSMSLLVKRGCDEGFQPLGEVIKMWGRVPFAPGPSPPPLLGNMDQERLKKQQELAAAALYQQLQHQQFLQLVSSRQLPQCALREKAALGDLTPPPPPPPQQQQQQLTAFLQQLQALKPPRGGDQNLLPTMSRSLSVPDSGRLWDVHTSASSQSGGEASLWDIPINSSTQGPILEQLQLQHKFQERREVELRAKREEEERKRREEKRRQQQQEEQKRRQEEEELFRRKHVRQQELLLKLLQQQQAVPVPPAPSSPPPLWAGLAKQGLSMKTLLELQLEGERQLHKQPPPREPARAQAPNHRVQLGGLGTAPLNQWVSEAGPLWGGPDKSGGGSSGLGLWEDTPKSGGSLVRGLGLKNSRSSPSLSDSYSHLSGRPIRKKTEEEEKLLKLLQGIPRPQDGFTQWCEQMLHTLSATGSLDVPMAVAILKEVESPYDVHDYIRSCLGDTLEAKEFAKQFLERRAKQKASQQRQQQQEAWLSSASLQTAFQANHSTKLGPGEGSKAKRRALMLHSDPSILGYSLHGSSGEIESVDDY
UniProt Q8TD30: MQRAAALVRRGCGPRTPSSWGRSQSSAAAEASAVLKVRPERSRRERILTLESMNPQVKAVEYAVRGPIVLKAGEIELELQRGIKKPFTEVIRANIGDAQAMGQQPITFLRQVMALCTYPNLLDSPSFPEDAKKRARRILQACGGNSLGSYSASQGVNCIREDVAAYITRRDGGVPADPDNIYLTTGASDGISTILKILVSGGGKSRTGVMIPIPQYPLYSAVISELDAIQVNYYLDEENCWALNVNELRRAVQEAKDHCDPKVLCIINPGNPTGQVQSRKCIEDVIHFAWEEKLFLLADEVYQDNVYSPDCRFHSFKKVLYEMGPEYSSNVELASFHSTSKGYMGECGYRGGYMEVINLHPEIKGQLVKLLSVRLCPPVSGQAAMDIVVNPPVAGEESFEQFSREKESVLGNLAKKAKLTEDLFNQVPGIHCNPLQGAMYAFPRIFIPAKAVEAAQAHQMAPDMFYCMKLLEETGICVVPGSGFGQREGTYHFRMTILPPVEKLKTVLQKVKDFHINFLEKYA
UniProt P43250, whole entry, looked up: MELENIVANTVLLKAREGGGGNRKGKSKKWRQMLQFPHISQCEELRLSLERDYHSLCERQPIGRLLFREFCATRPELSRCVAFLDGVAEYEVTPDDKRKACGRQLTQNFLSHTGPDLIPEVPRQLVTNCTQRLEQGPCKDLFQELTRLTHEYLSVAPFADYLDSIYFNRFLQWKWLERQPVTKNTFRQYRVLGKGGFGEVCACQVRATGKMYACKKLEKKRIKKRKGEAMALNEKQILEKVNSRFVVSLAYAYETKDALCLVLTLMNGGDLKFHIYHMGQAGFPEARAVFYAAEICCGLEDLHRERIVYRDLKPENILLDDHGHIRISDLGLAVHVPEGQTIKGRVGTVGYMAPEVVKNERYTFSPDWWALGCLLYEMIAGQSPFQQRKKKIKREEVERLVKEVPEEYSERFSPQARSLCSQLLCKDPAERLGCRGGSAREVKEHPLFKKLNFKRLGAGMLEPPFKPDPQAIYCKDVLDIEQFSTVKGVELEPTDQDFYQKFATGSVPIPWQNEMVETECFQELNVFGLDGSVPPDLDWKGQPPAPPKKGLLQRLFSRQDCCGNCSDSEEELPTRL
UniProt O94923: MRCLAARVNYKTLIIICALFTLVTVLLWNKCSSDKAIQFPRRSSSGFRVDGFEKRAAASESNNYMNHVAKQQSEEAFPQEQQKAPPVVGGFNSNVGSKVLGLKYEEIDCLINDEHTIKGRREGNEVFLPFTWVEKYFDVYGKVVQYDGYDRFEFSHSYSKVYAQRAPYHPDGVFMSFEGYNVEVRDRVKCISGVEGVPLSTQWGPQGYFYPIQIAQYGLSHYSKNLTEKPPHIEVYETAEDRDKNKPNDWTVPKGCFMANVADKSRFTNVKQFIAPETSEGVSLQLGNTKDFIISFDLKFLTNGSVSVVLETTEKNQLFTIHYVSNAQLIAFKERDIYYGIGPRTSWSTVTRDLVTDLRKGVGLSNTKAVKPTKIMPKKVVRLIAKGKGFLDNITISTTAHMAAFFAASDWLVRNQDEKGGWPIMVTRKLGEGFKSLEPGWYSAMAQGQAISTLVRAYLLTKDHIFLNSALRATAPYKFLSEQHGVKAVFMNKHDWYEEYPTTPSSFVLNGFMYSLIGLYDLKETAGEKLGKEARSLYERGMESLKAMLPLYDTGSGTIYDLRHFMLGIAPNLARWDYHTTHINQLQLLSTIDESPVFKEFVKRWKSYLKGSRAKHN

Experiments:
Assay in all cases: log2 fold change, soluble protein after heating vs DMSO (PISA); higher = thermal stabilisation; K562 cells, 10 uM, 30 min; active = over 0.2 and 3.5 SD of the protein, either way, in both replicates (recomputed)
[1] = compound: CC1=C(SC2=C1C(=N[C@H](C3=NN=C(N32)C)CC(=O)N)C4=CC=C(C=C4)Cl)C
Procedure, shortened: (§1)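 Aliquots of K562 cells (2×10^6 cells/mL) treated with 10 μM compound for 30 min were heated for 3 min over 48°C-58°C. After pooling and extraction in PBS with 0.5% NP-40 at 4°C, soluble protein from a 21,000xg, 90 min spin was quantified by TMTpro 16plex LC-MS/MS with channel sums equalised. Thermal stability is expressed against control samples, from duplicates, as a log2 fold change.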

[2] = compound: c1ccc([C@@H]2C[C@H]2NC2CCNCC2)cc1
Procedure, shortened: as §1

[3] = compound: C1=CC=C(C=C1)[C@H](COC2=CC3=C(C=C2)NC(=O)N3)NC(=O)C4=CC=CN(C4=O)CC5=CC(=C(C=C5)F)F
Procedure, shortened: as §1

[4] = compound: CC1=C2C(=CC=C1)N=C(N(C2=O)C3=CC=CC=C3C)CN4C=NC5=C(N=CN=C54)N
Procedure, shortened: as §1

[5] = compound: Cc1sc2c(c1C)C(c1ccc(Cl)cc1)=N[C@@H](CC(=O)OC(C)(C)C)c1nnc(C)n1-2
Procedure, shortened: as §1

**Q.** What does the source list for GIT1 isoform 3 (UniProt Q9Y2X7)?
**A.** log2 fold change [1]: inactive: -0.306; log2 fold change [2]: inactive: -0.041

**Q.** With GSE1 (UniProt Q14687) as the target, how does the log2 fold change [3] read?
**A.** inactive: -0.151

**Q.** And the log2 fold change [1]?
**A.** inactive: 0.029

**Q.** What about the log2 fold change [4] of the same target?
**A.** inactive: 0.008

**Q.** What about the log2 fold change [2] of the same target?
**A.** active: 1.45

**Q.** What does the source list for GPS2 (UniProt Q13227)?
**A.** log2 fold change [3]: inactive: 0.015; log2 fold change [4]: inactive: 0; log2 fold change [5]: inactive: 0.039

**Q.** Which results are given for GPATCH1 (UniProt Q9BRR8)?
**A.** log2 fold change [1]: inactive: 0.051; log2 fold change [4]: inactive: 0.148; log2 fold change [5]: inactive: 0.374; log2 fold change [2]: inactive: 0.068

**Q.** What does the source list for GID8 (UniProt Q9NWU2)?
**A.** log2 fold change [3]: inactive: 0.029; log2 fold change [1]: inactive: 0.074; log2 fold change [4]: inactive: 0.047; log2 fold change [5]: inactive: -0.011; log2 fold change [2]: inactive: 0.016

**Q.** Which results are given for GLS2 (UniProt Q9UI32)?
**A.** log2 fold change [1]: inactive: 0.088; log2 fold change [2]: inactive: 0.035

**Q.** Which log2 fold change [3] does the source give for GLUD2 (UniProt P49448) here?
**A.** inactive: 0.026

**Q.** What about the log2 fold change [1] of the same target?
**A.** inactive: 0.061

**Q.** What about the log2 fold change [4] of the same target?
**A.** inactive: -0.029

**Q.** And the log2 fold change [5]?
**A.** inactive: 0.047

**Q.** And the log2 fold change [2]?
**A.** inactive: -0.005

**Q.** GP6 isoform 3 (UniProt Q9HCN6) was tested. Which log2 fold change [3] did it give?
**A.** inactive: 0.163

**Q.** And the log2 fold change [1]?
**A.** inactive: -0.07

**Q.** What about the log2 fold change [2] of the same target?
**A.** inactive: 0.02

**Q.** For GOSR1 (UniProt E9PCW1), which log2 fold change [3] is on record?
**A.** inactive: -0.054

**Q.** And the log2 fold change [1]?
**A.** inactive: -0.063

**Q.** And the log2 fold change [2]?
**A.** inactive: -0.003

**Q.** GON4L (UniProt Q3T8J9) was tested. Which log2 fold change [3] did it give?
**A.** inactive: -0.207

**Q.** And the log2 fold change [1]?
**A.** inactive: 0.074

**Q.** What about the log2 fold change [5] of the same target?
**A.** inactive: -0.026

**Q.** What about the log2 fold change [2] of the same target?
**A.** inactive: 0.057

**Q.** With GPATCH2L (UniProt Q9NWQ4) as the target, how does the log2 fold change [5] read?
**A.** inactive: 0.278

**Q.** How did the log2 fold change [3] turn out when GPRIN1 (UniProt Q7Z2K8) was run?
**A.** inactive: 0.01

**Q.** And the log2 fold change [1]?
**A.** inactive: -0.016

**Q.** And the log2 fold change [4]?
**A.** inactive: 0.028

**Q.** And the log2 fold change [5]?
**A.** inactive: 0.033

**Q.** What about the log2 fold change [2] of the same target?
**A.** inactive: 0.027

**Q.** With GORAB (UniProt Q5T7V8) as the target, how does the log2 fold change [3] read?
**A.** inactive: -0.357

**Q.** And the log2 fold change [4]?
**A.** inactive: -0.017

**Q.** What about the log2 fold change [5] of the same target?
**A.** inactive: -0.036

**Q.** For GREB1 (UniProt Q4ZG55), which log2 fold change [1] is on record?
**A.** inactive: 0.095

**Q.** And the log2 fold change [4]?
**A.** inactive: 0.175

**Q.** What about the log2 fold change [5] of the same target?
**A.** inactive: 0.037

**Q.** And the log2 fold change [2]?
**A.** inactive: -0.1

**Q.** For GIGYF1 (UniProt O75420), which log2 fold change [1] is on record?
**A.** inactive: -0.028

**Q.** And the log2 fold change [2]?
**A.** inactive: 0.012

**Q.** For GOLGA6B (UniProt A6NDN3), which log2 fold change [3] is on record?
**A.** inactive: 0.043

**Q.** What about the log2 fold change [4] of the same target?
**A.** inactive: 0.19

**Q.** With GPAA1 (UniProt E9PLG8) as the target, how does the log2 fold change [3] read?
**A.** inactive: -0.018

**Q.** What about the log2 fold change [1] of the same target?
**A.** inactive: 0.228

**Q.** And the log2 fold change [5]?
**A.** inactive: -0.08

**Q.** What about the log2 fold change [2] of the same target?
**A.** inactive: -0.091

**Q.** With GPAM (UniProt Q9HCL2) as the target, how does the log2 fold change [5] read?
**A.** inactive: -0.18

**Q.** Which results are given for GNB1 (UniProt P62873)?
**A.** log2 fold change [3]: inactive: 0.012; log2 fold change [1]: inactive: 0.047; log2 fold change [4]: inactive: -0.009; log2 fold change [5]: inactive: -0.125; log2 fold change [2]: inactive: -0.064

**Q.** For GLE1 (UniProt Q53GS7), which log2 fold change [1] is on record?
**A.** inactive: -0.326

**Q.** And the log2 fold change [2]?
**A.** inactive: 0.019

**Q.** How did the log2 fold change [1] turn out when GPT2 (UniProt Q8TD30) was run?
**A.** inactive: 0.266

**Q.** And the log2 fold change [4]?
**A.** inactive: 0.072

**Q.** And the log2 fold change [5]?
**A.** inactive: 0.028

**Q.** And the log2 fold change [2]?
**A.** inactive: -0.087

**Q.** For GLS (UniProt O94925), which log2 fold change [3] is on record?
**A.** inactive: -0.022

**Q.** What about the log2 fold change [1] of the same target?
**A.** inactive: 0.114

**Q.** And the log2 fold change [4]?
**A.** inactive: 0.138

**Q.** What about the log2 fold change [5] of the same target?
**A.** inactive: 0.013

**Q.** What about the log2 fold change [2] of the same target?
**A.** inactive: 0.082

**Q.** Which results are given for GIT2 (UniProt Q14161)?
**A.** log2 fold change [3]: inactive: -0.075; log2 fold change [1]: inactive: 0.032; log2 fold change [2]: inactive: -0.047

**Q.** With GOLGA3 (UniProt Q08378) as the target, how does the log2 fold change [3] read?
**A.** inactive: 0.007

**Q.** And the log2 fold change [1]?
**A.** inactive: 0.04

**Q.** What about the log2 fold change [4] of the same target?
**A.** inactive: 0.042

**Q.** And the log2 fold change [5]?
**A.** inactive: 0.012

**Q.** What about the log2 fold change [2] of the same target?
**A.** inactive: -0.023

**Q.** With GOLPH3L (UniProt Q9H4A5) as the target, how does the log2 fold change [4] read?
**A.** inactive: -0.195

**Q.** How did the log2 fold change [4] turn out when GRK6 isoform 2 (UniProt P43250) was run?
**A.** inactive: 0.051

**Q.** GRK2 (UniProt P25098) was tested. Which log2 fold change [3] did it give?
**A.** inactive: -0.001

**Q.** And the log2 fold change [1]?
**A.** inactive: 0.023

**Q.** And the log2 fold change [4]?
**A.** inactive: 0.094

**Q.** What about the log2 fold change [5] of the same target?
**A.** inactive: -0.016

**Q.** And the log2 fold change [2]?
**A.** inactive: -0.046

**Q.** Which log2 fold change [3] does the source give for GPN3 isoform 2 (UniProt Q9UHW5) here?
**A.** inactive: -0.046

**Q.** What about the log2 fold change [1] of the same target?
**A.** inactive: 0.025

**Q.** What about the log2 fold change [4] of the same target?
**A.** inactive: 0.055

**Q.** What about the log2 fold change [5] of the same target?
**A.** inactive: 0.03

**Q.** What about the log2 fold change [2] of the same target?
**A.** inactive: -0.044

**Q.** Which results are given for GMIP (UniProt Q9P107)?
**A.** log2 fold change [3]: inactive: 0.137; log2 fold change [1]: inactive: 0.003; log2 fold change [5]: inactive: -0.076; log2 fold change [2]: inactive: -0.17

**Q.** How did the log2 fold change [1] turn out when GORASP1 (UniProt Q9BQQ3) was run?
**A.** inactive: -0.01

**Q.** And the log2 fold change [2]?
**A.** inactive: 0.103

**Q.** GLCE (UniProt O94923) was tested. Which log2 fold change [3] did it give?
**A.** inactive: 0.055

**Q.** What about the log2 fold change [1] of the same target?
**A.** inactive: -0.031

**Q.** And the log2 fold change [2]?
**A.** inactive: -0.002
